Reference: PubChem BioAssay AID1347423 (Functional Genomics Laboratory (NCATS/FGL), 2020)
Hit rate of the full screen: of about 52,000 sequences, about 210 (0.4%) were called active.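 The calls were made as follows: active = gene whose silencing raises cell survival under the drug, median off-target-corrected z-score across its silencing RNAs 2 or more; inactive = the rest.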 Some of the results follow.

Assay: Resistance to Poly (ADP-Ribose) Polymerase inhibitor: Gene Identification via Genome-wide siRNA Screen
Settings: mouse BRCA2 R2336H ES cells, olaparib, CellTiter-Glo viability; active compounds read high
Method in brief: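 Mouse BRCA2 R2336H ES cells were reverse-transfected with siRNA (20 nM final), treated at 48 h with 500 nM olaparib, and read by CellTiter-Glo after 72 h. Scores: MAD-based z per siRNA, median per gene, seed off-target correction.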

| Sequence | z-score |
| --- | --- |
| CGCCCUAUACCGAUACUUUTT against Kcnk5 | inactive: -0.0982 |
| GGAUUUUAGUGAAUUCCAUTT against Asah1 | inactive: -0.732 |
| GCAUGCUGAGGGACACAGUTT against 1810055G02Rik | inactive: -0.274 |
| GGCAAGAAAUUCUUCAGCATT against Siat8c | inactive: 1.29 |
| GGAAGUAAAGGGAUUUAACTT against 1110054N06Rik | inactive: 0.25 |
| GCCUUGACAGAGGUAUUGATT against Ovgp1 | inactive: -0.824 |
| GAAAAAUAUCCUGGCAGUGTT against Olfr824 | inactive: -0.568 |
| CCAGCUAUACGAAGACUUCTT against 2810435D12Rik | inactive: 1.13 |
| GGUACUCCUCCAUUAUCACTT against Olfr631 | inactive: -0.0173 |
| GGUGUCGAUGUCCUUUAUGTT against B130055L09Rik | inactive: -0.122 |
| GGUUCUCCUCCCAAAUUAGTT against Nptxr | inactive: -0.127 |
| GCUCCAUUUAUGCUCCCAGTT against Zfp71-rs1 | inactive: 0.108 |
| GGCCAAGUCUGGAAUCACUTT against D1Ertd396e | inactive: -1.44 |
| GGGCACUUAUUGCUACCUGTT against Wfs1 | inactive: 2.27 |
| GGUUCUUAUUUCACUAUUCTT against Nmu | inactive: -0.386 |
| GGAGAAGAUGAGAGAAUUUTT against Tph1 | inactive: 0.357 |
| GGUCUGUAUGUCAUUUAUCTT against Ywhag | inactive: -0.162 |
| GGAAUUCCAAUGUUACCAUTT against Mfi2 | inactive: 1.28 |
| GGAUAACCAUAUACUUCUGTT against 1110006O24Rik | inactive: 0.935 |
| GGUGUUACCCUCCUUAGAGTT against 5730494N06Rik | inactive: -0.203 |
| GGCACUUAUGACACCUACATT against Fkbp10 | inactive: -1.87 |
| GGCUUUUGAAAAUGACUACTT against Galnt5 | inactive: 0.266 |

| Sequence | z-score |
| --- | --- |
| GGAAGUGGAGGAAAAGAAGTT against Pdcd7 | inactive: -0.748 |
| GGCCCAAGAGAAUAUCCAGTT against MGC129481 | inactive: 0.847 |
| CCCAAUUUGGAGCUAUCAGTT against C130090K23Rik | inactive: -1.41 |
| GGAACUGAUAGUAAUUGCCTT against Il7 | inactive: -0.933 |
| GGACUAUGGGAUUUCAGUUTT against 5730420B22Rik | inactive: -1.15 |
| CCUUUUUAUCGCUUUACUGTT against Scn10a | inactive: 0.0445 |
| CCCACAGAUCAGAUGCAUCTT against Abhd6 | inactive: -0.0376 |
| GCACGGAUGCAGUGAAUAGTT against MGC90611 | inactive: -3.31 |
| GCGUGGUGAUAGAAGAUAUTT against Pcdhgb8 | inactive: -1.91 |
| GCUGACCAUGGAGUAUAACTT against D3Ertd789e | inactive: 1.14 |
| GUCUUUUAUACUUUGGUGGTT against Olfr1255 | inactive: 1.43 |
| GCAGAGUAUUUGAUUCUUATT against BC022641 | inactive: -1.24 |
| CCAUCUCCUUUUCAGGGUGTT against Olfr747 | inactive: 0.591 |
| GGAAAGAGCAAACAGUUCCTT against Il1f6 | inactive: -1.08 |
| CCGAGAUGCCAAUAAAUGATT against Tcl1 | inactive: -0.326 |
| CCACACUGAGUUUUACUACTT against Il22ra1 | inactive: 0.355 |
| CGUAGACAUGGCCUUUUUUTT against B230399E16Rik | inactive: -0.281 |
| CCAGGAUGAAAGGUCACACTT against 9130221D24Rik | inactive: 1.5 |
| GGCAUCACUGAUGAAUGAATT against Pacsin2 | active: -0.947 |
| GGACCUUAGCUGCUCUAACTT against Bai3 | inactive: 0.191 |
| CGUACAUUGCUCUUCUUUUTT against Atp2a3 | inactive: 0.0305 |
| GGAGAUUGCCAAGCAUAAGTT against Pcyt2 | inactive: 0.258 |

In another format: results already given.
Sequence	z-score
GGCCAAGUCUGGAAUCACUTT against D1Ertd396e	inactive: -1.44
GGGCACUUAUUGCUACCUGTT against Wfs1	inactive: 2.27
GGUUCUUAUUUCACUAUUCTT against Nmu	inactive: -0.386
GGAGAAGAUGAGAGAAUUUTT against Tph1	inactive: 0.357
GGUCUGUAUGUCAUUUAUCTT against Ywhag	inactive: -0.162

(next part)

| Sequence | z-score |
| --- | --- |
| GGAUAGCUCUAUCAACUCUTT against Serpinb3b | inactive: -0.56 |
| GGAAUUGGUUCAGAAAUAUTT against Rtn4 | inactive: 1.9 |
| GGCUGCUGAUGAAAUGACUTT against Guca2b | inactive: -0.727 |
| GGUUUACACGGUGGUAGAUTT against Ap2s1 | inactive: 1.29 |
| GGCCCUAGAUGAGCACAAATT against Kcnh3 | inactive: -0.111 |
| GGUGCUAAGUAUUCUUAUCTT against D19Ertd703e | inactive: -0.251 |
| CCCGCUCAAGAUCCUGUUUTT against 2310011J03Rik | inactive: -1.85 |
| GCUAGACUUGGAGAAUUAATT against E430034L04Rik | inactive: 0.913 |
| GGAGGUGUAGAGAUGAAGCTT against Metapl1 | inactive: 2.1 |
| GGAACAUGACUUUCUCUGUTT against BC021367 | inactive: -0.951 |
| CCCGAUCAUGCAUAGCUGATT against Decr2 | inactive: 0.796 |
| GGAAAGAUCGAGGAAGAUATT against 0610039D01Rik | inactive: -0.0138 |
| GCUUCAUGCAAAAGUCACCTT against Prg3 | inactive: 0.627 |
| GGUCAAAACAUGUUGAAGGTT against B330016D10Rik | inactive: 0.0542 |
| GCUAGGUCCCAAUUUUCACTT against Psg29 | inactive: -1.21 |
| GGCAGACUUCUACAAGGAATT against C230030N03Rik | inactive: -0.513 |
| GGCUCACAAGGAAGAGAUCTT against Cstad | inactive: 0.371 |
| GCAUGGAGAGAACCUGAAATT against Rnf36 | inactive: -2.37 |
| CCUAGCAAAGCUGUUCCACTT against Vapa | inactive: 0.689 |
| GGAGCUUCUACAGUACGAGTT against 4930578I06Rik | inactive: 0.44 |
| CCUUCUACAAGUGGUGUUGTT against Actl7a | inactive: -0.0191 |
